From patent publication US4468403A, “Analgesic substituted piperidylidene-2-sulfon(cyan)amide derivatives” (priority 1982, dated 1984)
Some results were stated once for a whole list of compounds, not compound by compound.

Assay type: in vivo, male Swiss albino mice
Conditions: phenylquinone writhing, mice
Description: The percent change is calculated according to the following equation: % change=100- (no. of writhes in treated group/no. of writhes in control group)×100.

Compound: O=S(=O)(N=C1CCCCN1CC1CC1)c1ccc(Cl)cc1 [Compound W-20, 1-Cyclopropylmethylpiperidylidene-2-(4-chlorophenyl)sulfonamide]
- Analgesic (agonist) activity, in words: all active analgesics which are much more potent

Compound: C/C=C/N1CCCCC1=NS(=O)(=O)c1ccc(Cl)cc1 [Compound W-32, E-1-(1-Propenyl)piperidylidene-2-(4-chlorophenyl)sulfonamide]
- Analgesic (agonist) activity, in words: all active analgesics which are much more potent
